Measured data: PubChem BioAssay AID1259308 (NCATS, 2017)
Here is an unselected part of about 59,000 deposited reagents. About 1,510 of them (2.6%) were called active. 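Calls use total luciferase alone and ignore viability, so some active siRNAs may act by altering cell number.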 Reagents against one gene are numbered here. Further read-outs or replicates are left out here. Reagent sequences are not shown.

- Screen: 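Knock-downs that increase output of a recombinant reporter protein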 (primary screen)
- Cell system: human HEK293 embryonic kidney cells stably expressing firefly luciferase (HEK-CMV-Luc2-Hygro)
- Knock-down reagent: single siRNA against human genes, 0.8 pmol siRNA per well
- Timing: 72 h
- Read-out: 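Reporter luminescence and viable-cell signal on separate replicate plates, given as percent of non-targeting control and median/MAD z-scores, plus per-cell luciferase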
- Direction: total luciferase, z-score: higher = more reporter protein produced
- Rule for the call: 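An siRNA counts as active if its total luciferase robust z-score exceeds 3; genes with two or more such siRNAs out of three were retested with fresh siRNAs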
- Meaning of the calls: active = raised luciferase; inactive = no rise

gene knocked down | reagent no. | total luciferase, z-score | outcome
C2orf68 (GeneID 388969) | 1 | 0.532 | inactive
C2orf68 (GeneID 388969) | 2 | 0.933 | inactive
C2orf68 (GeneID 388969) | 3 | 1.5 | inactive
CDRT15 (GeneID 146822) | 1 | 0.538 | inactive
CDRT15 (GeneID 146822) | 2 | -1.41 | inactive
CDRT15 (GeneID 146822) | 3 | 1.62 | inactive
GLIS2 (GeneID 84662) | 1 | 1.88 | inactive
GLIS2 (GeneID 84662) | 2 | -1.74 | inactive
GLIS2 (GeneID 84662) | 3 | 1.19 | inactive
TIGD5 (GeneID 84948) | 1 | -0.0949 | inactive
TIGD5 (GeneID 84948) | 2 | -0.407 | inactive
TIGD5 (GeneID 84948) | 3 | 0.216 | inactive
TCF21 (GeneID 6943) | 1 | -0.276 | inactive
TCF21 (GeneID 6943) | 2 | -0.77 | inactive
TCF21 (GeneID 6943) | 3 | -1.52 | inactive

Continued; the last 2 above are carried over.
gene knocked down | reagent no. | total luciferase, z-score | outcome
TCF21 (GeneID 6943) | 2 | -0.77 | inactive
TCF21 (GeneID 6943) | 3 | -1.52 | inactive
POLE3 (GeneID 54107) | 1 | -0.124 | inactive
POLE3 (GeneID 54107) | 2 | 0.815 | inactive
POLE3 (GeneID 54107) | 3 | -0.255 | inactive
PCCA (GeneID 5095) | 1 | 0.767 | inactive
PCCA (GeneID 5095) | 2 | 0.776 | inactive
PCCA (GeneID 5095) | 3 | -0.699 | inactive
MDFIC (GeneID 29969) | 1 | 3.27 | active
MDFIC (GeneID 29969) | 2 | -1.03 | inactive
MDFIC (GeneID 29969) | 3 | -0.519 | inactive
ESS2 (GeneID 8220) | 1 | 0.113 | inactive
ESS2 (GeneID 8220) | 2 | 0.135 | inactive
ESS2 (GeneID 8220) | 3 | 4.83 | active
PRR14 (GeneID 78994) | 1 | 1.56 | inactive
PRR14 (GeneID 78994) | 2 | 0.346 | inactive
PRR14 (GeneID 78994) | 3 | 0.984 | inactive
SPHAR (retired record) (GeneID 10638) | 1 | 0.0738 | inactive
SPHAR (retired record) (GeneID 10638) | 2 | -0.879 | inactive
SPHAR (retired record) (GeneID 10638) | 3 | -0.399 | inactive
MT1CP (GeneID 441771) | 1 | 0.58 | inactive
MT1CP (GeneID 441771) | 2 | 3.44 | active
MT1CP (GeneID 441771) | 3 | -0.259 | inactive
NAAA (GeneID 27163) | 1 | -0.136 | inactive
NAAA (GeneID 27163) | 2 | 0.339 | inactive
NAAA (GeneID 27163) | 3 | -0.0128 | inactive
